The hits were mostly taken out for another list; the other results follow. Active and inactive are the calls of the source. Calls come from the whole dose curve; as a rule, active = well fitted inhibition curve with a large enough effect; inconclusive = small, poorly fitted or top-dose-only effect; inactive = no such curve, though single readings can be large or run the other way.
% is set by controls: 0 for no effect and ±100 for the full control effect.

The target of the assay is Schistosoma mansoni thioredoxin glutathione reductase (TGR) (UniProt Q962Y6). Put plainly: qHTS Assay for the Inhibitors of Schistosoma Mansoni Peroxiredoxins. Note: nearly all actives have a fitted effect of over 60% in size. To be noted: purified TGR, DTNB reduction, TNB absorbance 405 nm; at 114 µM (top of the series). From the text: Schistosomiasis is a major neglected tropical disease that currently affects over 200 million. It is caused by different species of flatworms, such as Schistosoma mansoni. Over the last century, drugs to treat the disease have evolved from potassium antimonyl tartrate, artemisinin, oxamniquine, to praziquantel, with praziquantel remaining the universally-used single drug of choice over the past three decades. However, transmission rates have changed little with praziquantel, and there is evidence for the development of drug resistant parasites. Because there is currently no suitable alternative therapy available, there is an urgent need to identify new targets and drugs for schistosomiasis treatment. […] Recently, a quantitative high-throughput screen of the NIH Molecular Libraries Small Molecule Repository (MLSMR, ~71K at the time of the screen in 2007) was performed using an assay that targeted both TGR and peroxiredoxin2 (Prx2, an H2O2-reducing enzymatic component of the S. mansoni redox "firewall") by following the decrease of NADPH fluorescence. […] In addition, the fluorescence assay was also subject to fluorescence interference from compound library members. […] The assay followed the reduction of 5, 5'-dithiobis (2-nitrobenzoic acid) (DTNB) (Ellman's reagent) by NADPH and measured the increase in absorbance at 412 nm of the reaction product, TNB. […]
On the technique in general: Quantitative high-throughput screening tests each substance at several concentrations.
Turning to `CC(C)(C(=O)O)c1ccc([C@H](O)CCCN2CCC(C(O)(c3ccccc3)c3ccccc3)CC2)cc1`, the activity change, negative = inhibition is inactive: 13.8%. Turning to `CC(C)(C(=O)O)c1ccc(C(O)CCCN2CCC(C(O)(c3ccccc3)c3ccccc3)CC2)cc1` (configuration not stated), the activity change, negative = inhibition is inactive: -2.78%.

For the origin of these results see PubChem BioAssay AID485364 (National Center for Advancing Translational Sciences (NCATS), 2010).
